For the assay, the system named is Swiss mice, Sarcoma 180 sc, mean tumor weight T/C. In words: NCI In Vivo Anticancer Drug Screen. Data for tumor model Sarcoma 180 (subcutaneous) in Swiss mice. The settings on record: T/C endpoint: mean tumor weight, higher T/C = larger tumour; for T/C: evaluated on day 8. An outline of the steps:
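Tumor-bearing mice, transplantable tumor; readout survival or tumor size; result = T/C, treated vs vehicle control.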

[1] abbreviates: dose: 250.0 mg/kg/injection, schedule: Q01DX007 (ip), vehicle: carboxymethylcellulose (CMC).
The mark [2] stands for this setting: dose: 500.0 mg/kg/injection, schedule: Q01DX007 (ip), vehicle: carboxymethylcellulose (CMC).
The mark [3] stands for this setting: dose: 300.0 mg/kg/injection, schedule: Q01DX007 (ip), vehicle: carboxymethylcellulose (CMC).

Each structure is given as a SMILES string. The list shows only some results of the screen, not a fair sample: it gathers tests that were run many times, whatever their T/C, doses with no T/C, and many T/C values between a quarter and a half above the control. Further doses and runs are listed elsewhere. T/C gives the treated animals as a percentage of the vehicle group. Schedules are NCI's codes, read here as Q, the interval in days (D) or hours (H), X, the number of doses. Some schedule codes hold Z or #, which are not explained here. Some entries were tested several times; the results are listed from low to high. Some doses have a count of surviving animals in place of a T/C: the source files T/C as zero there, which appears to mark a toxic dose or a test without result, not a measured value. Counts of survivors are from the toxicity check (mostly the fifth day) where no day follows; animals may have died later.

Our source for the survivor count and T/C values is PubChem BioAssay AID342 (DTP/NCI, 2004).

As to `O=C1NC(=O)C2(CCCc3ccc(N(CCCl)CCCl)cc32)N1` (configuration not stated), the survivor count is, setting by setting: (dose: 185.0 mg/kg/injection, schedule: Q01DX007 (ip), vehicle: saline) 4 of 7; (dose: 188.0 mg/kg/injection, schedule: Q01DX007 (ip), vehicle: other) 3 of 6; (dose: 280.0 mg/kg/injection, schedule: Q01DX007 (ip), vehicle: saline) 0 of 7.
On to `c1ccn(-c2nc(-n3cccc3)nc(-n3cccc3)n2)c1`, for which the survivor count (dose: 250.0 mg/kg/injection, schedule: Q#A X014 (ip), vehicle: carboxymethylcellulose (CMC)) is given as 3 of 6.
In the case of `CC[C@](C)(O)C(=O)O[C@H]1C(=O)O[C@@H]2C[C@H]3C(C)=C[C@H](O)[C@@H](O)[C@]3(C)[C@H]3[C@@]4(O)OC[C@]32[C@@H]1[C@@H](C)[C@H]4O`, the survivor count (dose: 13.5 mg/kg/injection, schedule: Q01DX007 (sc), vehicle: olive oil, sesame oil, peanut oil) is listed as 4 of 7.
For the compound `CN(/N=N/N(C)c1ccccc1)c1ccccc1`, the survivor count is given as 3 of 6 under setting [1]; 1 of 6 under setting [2]; 3 of 6 (dose: 1000.0 mg/kg/injection, schedule: Q01DX007 (ip), vehicle: carboxymethylcellulose (CMC)); 0 of 6 (dose: 2000.0 mg/kg/injection, schedule: Q01DX007 (ip), vehicle: carboxymethylcellulose (CMC)).
`Clc1ccccc1/C=C/C=C1c2ccccc2-c2ccccc21`: the survivor count by setting is: (dose: 1103.0 mg/kg/injection, schedule: Q01DX007 (ip), vehicle: carboxymethylcellulose (CMC)) 0 of 6; (dose: 1679.0 mg/kg/injection, schedule: Q01DX007 (ip), vehicle: carboxymethylcellulose (CMC)) 0 of 6; (dose: 2506.0 mg/kg/injection, schedule: Q01DX007 (ip), vehicle: carboxymethylcellulose (CMC)) 0 of 6; (dose: 3759.0 mg/kg/injection, schedule: Q01DX007 (ip), vehicle: carboxymethylcellulose (CMC)) 0 of 6.
Consider `O=NN(CCCl)C(=O)NCCCl`, for which the survivor count (dose: 24.0 mg/kg/injection, schedule: Q01DX007 (ip), vehicle: saline) is given as 2 of 6.
Regarding `O=P(N1CCCC1)(N1CC1)N1CC1`, for the setting “dose: 0.85 mg/kg/injection, schedule: Q#A X014 (ip), vehicle: carboxymethylcellulose (CMC)”, the T/C is 128 % of control. The survivor count is, setting by setting: (dose: 2.0 mg/kg/injection, schedule: Q#A X014 (ip), vehicle: saline) 1 of 6; (dose: 16.0 mg/kg/injection, schedule: Q01DX007 (ip), vehicle: carboxymethylcellulose (CMC)) 3 of 6.
In the case of `CC(=O)OCC(=O)[C@@]1(O)CC[C@H]2[C@@H]3C=C(C)C4=CC(=O)CC[C@]4(C)[C@H]3[C@@H](O)C[C@@]21C`, the survivor count (dose: 400.0 mg/kg/injection, schedule: Q01DX007 (sc), vehicle: steroid suspending solution) is given as 2 of 7.
As to `Nc1c(Br)cc2c(c1Br)Cc1cc([N+](=O)[O-])ccc1-2`, the survivor count is reported as 1 of 6 (dose: 222.0 mg/kg/injection, schedule: Q01DX007 (ip), vehicle: carboxymethylcellulose (CMC)) and 1 of 6 (dose: 375.0 mg/kg/injection, schedule: Q#A X014 (ip), vehicle: saline).
On to `COc1cc2c(c(OC3OC(CO)C(O)C(O)C3O)c1)C(=O)CC(c1ccc(O)cc1)O2` (configuration not stated), for which, where the note is “dose: 400.0 mg/kg/injection, schedule: Q01DX007 (ip), vehicle: other”, the survivor count is given as 0 of 6.
In the case of `CC1CN(C(=O)CCl)c2ccccc2N1C(=O)CCl` (configuration not stated), the T/C runs as follows: (dose: 1.0 mg/kg/injection, schedule: Q01DX007 (ip), vehicle: carboxymethylcellulose (CMC)) 132 % of control; (dose: 8.0 mg/kg/injection, schedule: Q01DX007 (ip), vehicle: carboxymethylcellulose (CMC)) 125 % of control.
Turning to `CCCCCCCCCCCCCCCC[N+]1(C)CCN(SN2CC[N+](C)(CCCCCCCCCCCCCCCC)CC2)CC1`, the survivor count (dose: 47.5 mg/kg/injection, schedule: Q#A X014 (ip), vehicle: saline) is given as 3 of 6 and the survivor count (dose: 71.5 mg/kg/injection, schedule: Q#A X014 (ip), vehicle: saline) was 1 of 6.
In the case of `CN1Cc2c(ccc3c2OCO3)[C@@H]2[C@H](O)Cc3cc4c(cc3[C@@H]21)OCO4`, the survivor count reads like this: under setting [3], 1 of 6; under setting [2], 0 of 6.
In the case of `CN(CC#N)/N=N/c1nc[nH]c1C(N)=O`, the survivor count under setting [3] is listed as 3 of 6.
As for `CS(=O)(=O)OCCCl`, the survivor count (dose: 53.4 mg/kg/injection, schedule: Q#A X014 (ip), vehicle: carboxymethylcellulose (CMC)) is 5 of 10.
Regarding `CCOC(=O)C(N)Cc1ccc(N(CCCl)CCCl)cc1` (configuration not stated), the survivor count (dose: 18.8 mg/kg/injection, schedule: Q01DX007 (ip), vehicle: saline) is reported as 2 of 6.
Take `CCC1OCCN1C(C)C` (configuration not stated): the survivor count (dose: 187.5 mg/kg/injection, schedule: Q01DX007 (ip), vehicle: saline) is given as 2 of 7.
Turning to `COC12C(COC(N)=O)C3=C(C(=O)C(C)=C(N)C3=O)N1CC1C2N1C` (configuration not stated), the T/C is on record as 55, 64, 80, 84 % of control (dose: 5.0 mg/kg/injection, schedule: Q#A X014 (ip), vehicle: carboxymethylcellulose (CMC)) and 28, 29, 30, 44, 49 % of control (dose: 10.0 mg/kg/injection, schedule: Q#A X014 (ip), vehicle: carboxymethylcellulose (CMC)).
As for `COc1ccc(-c2ccc(OC)c(OC)c2OC)c(N)c1`, the survivor count runs as follows: (dose: 875.0 mg/kg/injection, schedule: Q01DX007 (ip), vehicle: methylcellulose (MC)) 2 of 6; (dose: 1000.0 mg/kg/injection, schedule: Q01DX007 (ip), vehicle: methylcellulose (MC)) 1 of 6.
`NNC(=O)c1nsnc1N`: the survivor count (dose: 100.0 mg/kg/injection, schedule: Q01DX007 (ip), vehicle: carboxymethylcellulose (CMC)) is reported as 0 of 6.
With `C[C@]12CC[C@H](O)C[C@@H]1CC[C@@H]1[C@@H]2C(=O)C[C@]2(C)C3=CC(=O)O[C@H]3C[C@@H]12`, the T/C (dose: 20.0 mg/kg/injection, schedule: Q01DX007 (sc), vehicle: steroid suspending solution) was 127 % of control.
In the case of `Cc1n[nH]c(=O)[nH]c1=O`, the survivor count is listed as 1 of 6 (dose: 1125.0 mg/kg/injection, schedule: Q01DX007 (ip), vehicle: other) and 0 of 6 (dose: 1687.0 mg/kg/injection, schedule: Q01DX007 (ip), vehicle: other).
Turning to `CCCCOC(=O)C1(N)CCCC1`, the survivor count is reported as 4 of 7 under setting [3] and 2 of 6 (dose: 504.0 mg/kg/injection, schedule: Q01DX007 (ip), vehicle: saline).
`CCOC(=O)c1c(C#N)c(Cl)nc(C)c1[N+](=O)[O-]`: where the note is “dose: 12.5 mg/kg/injection, schedule: Q#A X014 (ip), vehicle: carboxymethylcellulose (CMC)”, the survivor count is recorded as 1 of 6.
Turning to `CC1CN1P(=O)(Oc1ccccc1)N1CC1C` (configuration not stated), the survivor count by setting is: (dose: 62.5 mg/kg/injection, schedule: Q#A X014 (ip), vehicle: saline) 3 of 6; (dose: 94.0 mg/kg/injection, schedule: Q#A X014 (ip), vehicle: saline) 1 of 6, 2 of 6, 4 of 8.
`Nc1c(Br)cc2c(c1Br)Cc1cc(Cl)ccc1-2`: the survivor count (dose: 93.0 mg/kg/injection, schedule: Q01DX007 (ip), vehicle: other) was 3 of 6.
As for `O=C1C=CC(=O)N1c1ccc2c(c1)oc(=O)c1ccccc12`, the survivor count (dose: 750.0 mg/kg/injection, schedule: Q01DX007 (ip), vehicle: other) is reported as 4 of 7; the survivor count (dose: 1000.0 mg/kg/injection, schedule: Q01DX007 (sc), vehicle: steroid suspending solution) is 3 of 6; the survivor count (dose: 1250.0 mg/kg/injection, schedule: Q01DX007 (sc), vehicle: steroid suspending solution) was 2 of 6.
With `COc1cccc(/C=N\NC(=O)C(C)SC(C)C(=O)N/N=C/c2cccc(OC)c2)c1` (configuration not stated), the survivor count (dose: 84.0 mg/kg/injection, schedule: Q01DX007 (ip), vehicle: carboxymethylcellulose (CMC)) is 4 of 7.
`C=CCn1cnc2c(=S)nc[nH]c21`: the survivor count is given as 3 of 6 (dose: 125.0 mg/kg/injection, schedule: Q01DX007 (ip), vehicle: carboxymethylcellulose (CMC)) and 1 of 6 under setting [1].
In the case of `C[C@@H]1C[C@@H]([C@H](O)CC2CC(=O)NC(=O)C2)C(=O)[C@@H](C)C1`, for the setting “dose: 25.0 mg/kg/injection, schedule: Q#A X014 (ip), vehicle: carboxymethylcellulose (CMC)”, the survivor count is given as 3 of 6.
